Data as given in PubChem BioAssay AID1224830 (NIAID, 2016)

- Screen: 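Regulators of TLR4 signalling towards TNF-alpha in macrophage-like cells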 (primary screen)
- Cells: human THP-1 monocytic leukaemia cells, TNF dual-luciferase reporter clone, PMA-differentiated to macrophage-like cells
- Reagents: siRNA pool against human genes, 50 nM
- Duration: LPS for 4 h, given about 3 days after siRNA transfection
- Treatment: bacterial LPS (TLR4 ligand), 10 ng/ml
- Read-out: 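TNF firefly reporter luminescence divided by renilla, normalised to the plate median, then turned into a robust z-score for each replicate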
- Scale: TNF reporter robust z-score: higher = stronger TNF reporter response to LPS
- Active means: 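a well is active when its z-score exceeds 2.8 or falls below -1.5; control wells carry no call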
The deposit covers about 18,000 reagents; shown is a random part of them. In the full data, about 2,900 (16%) got an active call. 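Calls are made per well; low scores hint the gene aids the LPS response, high scores that it dampens it.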 Unmarked entries are inactive. Repeated entries: four replicate wells of each siRNA pool.

no.	gene knocked down	TNF reporter robust z-score
1	F3	0.4
2	F3	0.37
3	F3	-0.36
4	F3	-0.32
5	PHKA2	1.08
6	PHKA2	0.83
7	PHKA2	0.88
8	PHKA2	2.57
9	CCNO	0.67
10	CCNO	0.97
11	CCNO	0.89
12	REST	0.75
13	REST	0.76
14	REST	0.56
15	REST	-0.15
16	MOCS2	0.37
17	MOCS2	-0.64
18	MOCS2	0.23
19	MOCS2	0.85
20	PRELID3B	3.44 (active)
21	PRELID3B	1.04
22	PRELID3B	0.69
23	PRELID3B	-0.11
24	SHC2	-0.49
25	SHC2	-0.71
26	SHC2	-0.84
27	SHC2	-1.26
28	FBXL17	0.39
29	FBXL17	1.47
30	FBXL17	-2.42 (active)
31	FBXL17	0.63
32	SERPINB1	-1.43
33	SERPINB1	-1.19
34	SERPINB1	-1.45
35	SERPINB1	-1.38
36	SIPA1L1	-0.53
37	SIPA1L1	-0.21
38	SIPA1L1	-0.92
39	SIPA1L1	-0.97
40	SERPIND1	-1.01
41	SERPIND1	-0.34
42	SERPIND1	-1.22
43	SERPIND1	0.41
44	NAGK	0.99
45	NAGK	1.1
46	NAGK	1.64
47	NAGK	2.26

Records listed above marked active:
gene knocked down	TNF reporter robust z-score
PRELID3B	3.44 (active)
FBXL17	-2.42 (active)
